Reference: paper PMC9190063
Results are given in words; binding and its absence hold for the method and conditions named. Binding seen in cells or lysates may run through a third protein. Some entries that bind do so weakly or less than the wild type.

The chains behind the UniProt entries cited, without tags or fusion partners.
UniProt O70494: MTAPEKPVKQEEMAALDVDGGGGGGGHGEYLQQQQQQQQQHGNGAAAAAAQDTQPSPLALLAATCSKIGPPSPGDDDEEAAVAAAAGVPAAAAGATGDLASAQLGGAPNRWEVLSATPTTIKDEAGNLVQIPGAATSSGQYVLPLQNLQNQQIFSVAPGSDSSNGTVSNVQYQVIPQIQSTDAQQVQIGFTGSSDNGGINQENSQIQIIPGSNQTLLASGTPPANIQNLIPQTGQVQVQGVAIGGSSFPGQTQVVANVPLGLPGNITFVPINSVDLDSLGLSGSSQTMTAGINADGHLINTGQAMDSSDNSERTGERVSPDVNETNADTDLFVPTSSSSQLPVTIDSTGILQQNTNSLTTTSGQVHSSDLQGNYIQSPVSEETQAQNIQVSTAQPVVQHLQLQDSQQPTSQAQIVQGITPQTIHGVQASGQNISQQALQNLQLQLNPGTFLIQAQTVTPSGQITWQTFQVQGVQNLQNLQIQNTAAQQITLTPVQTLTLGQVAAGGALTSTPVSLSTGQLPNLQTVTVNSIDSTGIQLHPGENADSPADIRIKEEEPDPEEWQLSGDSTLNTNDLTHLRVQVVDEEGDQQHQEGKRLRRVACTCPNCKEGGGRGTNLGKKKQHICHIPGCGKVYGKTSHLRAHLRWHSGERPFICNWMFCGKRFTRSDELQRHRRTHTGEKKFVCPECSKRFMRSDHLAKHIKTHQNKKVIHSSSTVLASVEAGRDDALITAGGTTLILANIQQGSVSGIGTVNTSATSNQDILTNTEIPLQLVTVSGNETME
UniProt P83917: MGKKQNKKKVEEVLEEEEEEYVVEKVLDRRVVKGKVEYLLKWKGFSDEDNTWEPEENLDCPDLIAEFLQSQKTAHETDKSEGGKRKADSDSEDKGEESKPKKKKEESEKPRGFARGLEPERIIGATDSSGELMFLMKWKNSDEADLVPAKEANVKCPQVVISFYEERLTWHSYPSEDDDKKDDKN
UniProt Q921E6: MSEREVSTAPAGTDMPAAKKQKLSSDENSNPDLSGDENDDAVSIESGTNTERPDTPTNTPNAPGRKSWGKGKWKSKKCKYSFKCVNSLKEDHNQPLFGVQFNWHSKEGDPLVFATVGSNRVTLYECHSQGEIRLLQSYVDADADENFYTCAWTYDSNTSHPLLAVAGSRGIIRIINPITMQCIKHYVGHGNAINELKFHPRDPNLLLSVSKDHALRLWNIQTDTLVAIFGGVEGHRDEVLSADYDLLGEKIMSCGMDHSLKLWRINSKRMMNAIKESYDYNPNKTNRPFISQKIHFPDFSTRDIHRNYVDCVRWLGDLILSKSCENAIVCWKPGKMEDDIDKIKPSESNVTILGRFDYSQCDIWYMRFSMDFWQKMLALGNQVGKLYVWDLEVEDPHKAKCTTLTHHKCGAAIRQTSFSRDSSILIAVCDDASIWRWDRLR

Columns and labels:
Experiment in all cases: co-IP; endogenous Cbx1, PurB or Sp3 immunoprecipitated from cardiac fibroblast cell lysates, isotype antibody as control; immunoprecipitates immunoblotted for Cbx1, PurB, Sp3 or Eed; in one panel cells were transfected with control or PurB siRNA 3 days before the Cbx1 immunoprecipitation
[1] = target: T1, transcriptional activator protein PurB (mouse (endogenous in cardiac fibroblasts)) (UniProt O35295)
T1 sequence: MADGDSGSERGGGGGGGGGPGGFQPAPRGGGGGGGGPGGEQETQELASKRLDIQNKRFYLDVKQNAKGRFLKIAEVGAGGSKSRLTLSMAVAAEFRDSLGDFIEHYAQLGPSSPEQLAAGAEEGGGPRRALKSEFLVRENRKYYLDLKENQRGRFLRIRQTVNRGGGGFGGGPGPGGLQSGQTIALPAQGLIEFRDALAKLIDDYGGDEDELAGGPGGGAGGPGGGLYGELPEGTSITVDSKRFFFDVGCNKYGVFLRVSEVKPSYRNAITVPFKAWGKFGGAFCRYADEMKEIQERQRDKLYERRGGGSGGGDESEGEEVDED

[2] = target: transcription factor Sp3 (mouse (endogenous in cardiac fibroblasts)) (UniProt O70494)
[3] = target: heterochromatin protein Cbx1 (mouse (endogenous in cardiac fibroblasts)) (UniProt P83917)

Measured: binding

Eed (from UniProt Q921E6 1-441)
binds: all assays above
